# The list does not hold the whole screen: it gathers tests that were run many times, whatever their T/C, doses with no T/C, and many T/C values between a quarter and a half above the control. Other doses and runs of a compound stand elsewhere. T/C gives the treated animals as a percentage of the vehicle group. Some doses have a count of surviving animals in place of a T/C: the source holds a T/C of zero for them, seemingly a mark for toxic or unscored doses. Some doses without a T/C left all or most animals alive at the check, yet need not have been tolerated: survival well below the control is almost never listed, so the zero probably covers shortened survival too. Counts of survivors are from the toxicity check (mostly the fifth day) where no day follows; animals may have died later. Schedules are NCI's codes, read here as Q, the interval in days (D) or hours (H), X, the number of doses. Where survival is the endpoint, the PubChem record calls one and a half times the control and up active, and a quarter to a half above the control has no call in these data; cut-offs in other NCI protocols can differ. Some T/C values carry the count of animals alive at the toxicity check (mostly the fifth day); without a count, all were alive then. Some doses were run more than once; the results are listed from low to high. Brackets with × say how often a value occurs here.
# Test system: CD2F1 mice, L1210 leukemia ip, survival T/C
# Experiment: NCI In Vivo Anticancer Drug Screen. Data for tumor model L1210 Leukemia (intraperitoneal) in CD2F1 (CDF1) mice
# Conditions: higher T/C = longer survival
# Method in brief: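 Mice carrying a transplanted tumor received test compound or vehicle alone. The value is the measurement in the treated group divided by that in the vehicle-treated control group.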
# [1] = T/C endpoint: median survival time, dose: 1.0 mg/kg/injection, schedule: Q01DX001 (ip), vehicle: saline
smiles,measurement,setting,value
Cc1c2oc3c(C)ccc(C(=O)N[C@@H]4C(=O)N[C@H](C(C)C)C(=O)N5CCC[C@H]5C(=O)N(C)CC(=O)N(C)[C@@H](C(C)C)C(=O)O[C@H]4C)c3nc-2c(C(=O)N[C@@H]2C(=O)N[C@H](C(C)C)C(=O)N3CCC[C@H]3C(=O)N(C)CC(=O)N(C)[C@@H](C(C)C)C(=O)O[C@H]2C)c(N)c1=O,T/C,"T/C endpoint: mean survival time, dose: 0.02 mg/kg/injection, schedule: Q01DX009 (ip), vehicle: saline",140 % of control
same,T/C,"T/C endpoint: mean survival time, dose: 0.04 mg/kg/injection, schedule: Q01DX009 (ip), vehicle: saline",140 % of control
same,T/C,"T/C endpoint: mean survival time, dose: 0.05 mg/kg/injection, schedule: Q01DX007 (ip), vehicle: saline",144 % of control
same,T/C,"T/C endpoint: mean survival time, dose: 0.05 mg/kg/injection, schedule: Q01DX009 (ip), vehicle: saline",134 % of control
same,T/C,"T/C endpoint: mean survival time, dose: 0.1 mg/kg/injection, schedule: Q01DX007 (ip), vehicle: saline",134 % of control
same,T/C,"T/C endpoint: mean survival time, dose: 0.1 mg/kg/injection, schedule: Q01DX009 (ip), vehicle: saline",138 % of control
same,T/C,"T/C endpoint: mean survival time, dose: 0.1 mg/kg/injection, schedule: Q04DX003 (ip), vehicle: other",133 % of control
same,survivor count,"T/C endpoint: mean survival time, dose: 0.2 mg/kg/injection, schedule: Q01DX007 (ip), vehicle: other",6 of 6
same,survivor count,"T/C endpoint: mean survival time, dose: 0.2 mg/kg/injection, schedule: Q01DX007 (ip), vehicle: saline",6 of 6
same,T/C,"T/C endpoint: mean survival time, dose: 0.2 mg/kg/injection, schedule: Q03DX003 (ip), vehicle: other",125 % of control [5 of 6 alive]
same,survivor count,"T/C endpoint: mean survival time, dose: 0.4 mg/kg/injection, schedule: Q01DX007 (ip), vehicle: other",1 of 6
same,survivor count,"T/C endpoint: mean survival time, dose: 0.4 mg/kg/injection, schedule: Q01DX009 (ip), vehicle: other",0 of 6
same,T/C,"T/C endpoint: mean survival time, dose: 0.4 mg/kg/injection, schedule: Q04DX003 (ip), vehicle: other",133 % of control
same,T/C,"T/C endpoint: mean survival time, dose: 0.6 mg/kg/injection, schedule: Q01DX001 (ip), vehicle: saline",140 % of control
same,T/C,"T/C endpoint: mean survival time, dose: 50.0 micrograms/kg/injection, schedule: Q01DX009 (ip), vehicle: water, evaluated on day 30",137 % of control
same,T/C,"T/C endpoint: mean survival time, dose: 50.0 micrograms/kg/injection, schedule: Q01DX009 (ip), vehicle: water, evaluated on day 35",131 % of control
same,T/C,"T/C endpoint: mean survival time, dose: 100.0 micrograms/kg/injection, schedule: Q01DX009 (ip), vehicle: saline + alcohol",134 % of control
same,survivor count,"T/C endpoint: mean survival time, dose: 100.0 micrograms/kg/injection, schedule: Q01DX009 (ip), vehicle: water",5 of 6
same,T/C,"T/C endpoint: mean survival time, dose: 200.0 micrograms/kg/injection, schedule: Q01DX009 (ip), vehicle: saline + alcohol",126 % of control
same,survivor count,"T/C endpoint: mean survival time, dose: 200.0 micrograms/kg/injection, schedule: Q01DX009 (ip), vehicle: water",4 of 6
same,T/C,"T/C endpoint: median survival time, dose: 0.02 mg/kg/injection, schedule: Q01DX009 (ip), vehicle: water, evaluated on day 5",125 and 131 % of control
same,T/C,"T/C endpoint: median survival time, dose: 0.02 mg/kg/injection, schedule: Q01DX009 (ip), vehicle: water, evaluated on day 18",131 % of control
same,T/C,"T/C endpoint: median survival time, dose: 0.02 mg/kg/injection, schedule: Q01DX009 (ip), vehicle: water, evaluated on day 31",125 % of control
same,T/C,"T/C endpoint: median survival time, dose: 0.03 mg/kg/injection, schedule: Q01DX009 (ip), vehicle: water, evaluated on day 5","111, 123, 126 (2×), 135, 136 % of control"
same,T/C,"T/C endpoint: median survival time, dose: 0.03 mg/kg/injection, schedule: Q01DX009 (ip), vehicle: water, evaluated on day 18",123 % of control
same,T/C,"T/C endpoint: median survival time, dose: 0.03 mg/kg/injection, schedule: Q01DX009 (ip), vehicle: water, evaluated on day 30","111 [7 of 8 alive], 126 (2×), 136 % of control"
same,T/C,"T/C endpoint: median survival time, dose: 0.03 mg/kg/injection, schedule: Q01DX009 (ip), vehicle: water, evaluated on day 31",135 % of control
same,T/C,"T/C endpoint: median survival time, dose: 0.04 mg/kg/injection, schedule: Q01DX009 (ip), vehicle: water, evaluated on day 5","76, 118, 123, 142, 146 % of control (2×)"
same,T/C,"T/C endpoint: median survival time, dose: 0.04 mg/kg/injection, schedule: Q01DX009 (ip), vehicle: water, evaluated on day 18",146 % of control
same,T/C,"T/C endpoint: median survival time, dose: 0.04 mg/kg/injection, schedule: Q01DX009 (ip), vehicle: water, evaluated on day 30","123, 142, 146 % of control"
same,T/C,"T/C endpoint: median survival time, dose: 0.04 mg/kg/injection, schedule: Q01DX009 (ip), vehicle: water, evaluated on day 31",118 % of control
same,survivor count,"T/C endpoint: median survival time, dose: 0.04 mg/kg/injection, schedule: Q01DX009 (ip), vehicle: water",8 of 8
same,T/C,"T/C endpoint: median survival time, dose: 0.05 mg/kg/injection, schedule: Q01DX009 (ip), vehicle: water, evaluated on day 5","67, 109, 129, 146, 147, 149 % of control"
same,T/C,"T/C endpoint: median survival time, dose: 0.05 mg/kg/injection, schedule: Q01DX009 (ip), vehicle: water, evaluated on day 18",149 % of control
same,T/C,"T/C endpoint: median survival time, dose: 0.05 mg/kg/injection, schedule: Q01DX009 (ip), vehicle: water, evaluated on day 30","109, 129, 147 % of control"
same,T/C,"T/C endpoint: median survival time, dose: 0.05 mg/kg/injection, schedule: Q01DX009 (ip), vehicle: water, evaluated on day 31",146 % of control
same,survivor count,"T/C endpoint: median survival time, dose: 0.05 mg/kg/injection, schedule: Q01DX009 (ip), vehicle: water",7 of 8
same,T/C,"T/C endpoint: median survival time, dose: 0.06 mg/kg/injection, schedule: Q01DX009 (ip), vehicle: water, evaluated on day 5","83, 124, 134, 137, 147, 149 % of control"
same,T/C,"T/C endpoint: median survival time, dose: 0.06 mg/kg/injection, schedule: Q01DX009 (ip), vehicle: water, evaluated on day 18",149 % of control
same,T/C,"T/C endpoint: median survival time, dose: 0.06 mg/kg/injection, schedule: Q01DX009 (ip), vehicle: water, evaluated on day 30","134, 137, 147 % of control"
same,T/C,"T/C endpoint: median survival time, dose: 0.06 mg/kg/injection, schedule: Q01DX009 (ip), vehicle: water, evaluated on day 31",124 % of control
same,survivor count,"T/C endpoint: median survival time, dose: 0.06 mg/kg/injection, schedule: Q01DX009 (ip), vehicle: water",8 of 8
same,T/C,"T/C endpoint: median survival time, dose: 0.12 mg/kg/injection, schedule: Q04DX003 (ip), vehicle: saline",135 % of control
same,T/C,"T/C endpoint: median survival time, dose: 0.2 mg/kg/injection, schedule: Q04DX003 (ip), vehicle: saline",132 % of control
same,T/C,"T/C endpoint: median survival time, dose: 0.25 mg/kg/injection, schedule: Q01DX001 (ip), vehicle: saline",130 % of control [8 of 9 alive]
same,T/C,"T/C endpoint: median survival time, dose: 0.45 mg/kg/injection, schedule: Q01DX001 (ip), vehicle: saline",130 % of control
same,T/C,"T/C endpoint: median survival time, dose: 0.5 mg/kg/injection, schedule: Q01DX001 (ip), vehicle: saline",131 and 142 % of control
same,T/C,"T/C endpoint: median survival time, dose: 0.6 mg/kg/injection, schedule: Q01DX001 (ip), vehicle: saline",129 % of control
same,T/C,"T/C endpoint: median survival time, dose: 0.75 mg/kg/injection, schedule: Q01DX001 (ip), vehicle: saline",137 % of control
same,T/C,[1],"122, 151, 152 % of control"
same,survivor count,[1],2 of 6
same,T/C,"T/C endpoint: median survival time, dose: 50.0 micrograms/kg/injection, schedule: Q01DX009 (ip), vehicle: saline + alcohol",126 % of control
same,T/C,"T/C endpoint: median survival time, dose: 100.0 micrograms/kg/injection, schedule: Q01DX009 (ip), vehicle: saline + alcohol",137 % of control
Nc1nc(=O)c2[nH]cnc2n1O,survivor count,"T/C endpoint: mean survival time, dose: 100.0 mg/kg/injection, schedule: Q04DX003 (ip), vehicle: saline with Tween-80",1 of 6
same,survivor count,"T/C endpoint: mean survival time, dose: 200.0 mg/kg/injection, schedule: Q04DX003 (ip), vehicle: saline with Tween-80",1 of 6
same,survivor count,"T/C endpoint: mean survival time, dose: 400.0 mg/kg/injection, schedule: Q04DX003 (ip), vehicle: saline with Tween-80",0 of 6
N#CSc1ccc2c(ccn2C2OCC(O)C(O)C2O)c1 (configuration not stated),survivor count,"T/C endpoint: mean survival time, dose: 100.0 mg/kg/injection, schedule: Q01DX005 (ip), vehicle: other",1 of 3
same,survivor count,"T/C endpoint: mean survival time, dose: 200.0 mg/kg/injection, schedule: Q01DX005 (ip), vehicle: other",0 of 3
COC(=O)c1[nH]cnc1/N=N/N(C)C.[Cl][Cu][Cl],survivor count,"T/C endpoint: mean survival time, dose: 40.0 mg/kg/injection, schedule: Q01DX001 (ip), vehicle: saline",0 of 6
CC1(CC(C)(C)C2CCCCC2)OCCO1,survivor count,"T/C endpoint: mean survival time, dose: 200.0 mg/kg/injection, schedule: Q01DX009 (ip), vehicle: Klucel (hydroxypropylcellulose) (HPC)",6 of 6
same,survivor count,"T/C endpoint: mean survival time, dose: 400.0 mg/kg/injection, schedule: Q01DX009 (ip), vehicle: Klucel (hydroxypropylcellulose) (HPC)",4 of 6
CC(=O)Nc1ccc2c(c1)C(P(=O)(OC(C)C)OC(C)C)c1ccccc1-2 (configuration not stated),survivor count,"T/C endpoint: mean survival time, dose: 100.0 mg/kg/injection, schedule: Q01DX009 (ip), vehicle: saline with Tween-80",6 of 6
same,survivor count,"T/C endpoint: mean survival time, dose: 200.0 mg/kg/injection, schedule: Q01DX009 (ip), vehicle: saline with Tween-80",6 of 6
same,survivor count,"T/C endpoint: mean survival time, dose: 400.0 mg/kg/injection, schedule: Q01DX009 (ip), vehicle: saline with Tween-80",6 of 6
CC1(C)N=C(N)N=C(N)N1c1cccc(C#N)c1,T/C,"T/C endpoint: mean survival time, dose: 56.3 mg/kg/injection, schedule: Q01DX009 (ip), vehicle: saline",135 % of control
same,survivor count,"T/C endpoint: mean survival time, dose: 300.0 mg/kg/injection, schedule: Q01DX001 (ip), vehicle: saline",0 of 6
CC(N)CCC(C)(C)O (configuration not stated),survivor count,"T/C endpoint: mean survival time, dose: 400.0 mg/kg/injection, schedule: Q04DX003 (ip), vehicle: saline",0 of 6

# Source: PubChem BioAssay AID256 (DTP/NCI, 2004)
